In paper PMC6460386:
No constants are given. Whether binding was seen depends on the method and setting. In cells and extracts the contact can be indirect. Some binding calls cover weakened binding; strength is not graded here.

Protein sequences, listed by entry. Tags and fused reporters are not part of them.
UniProt P01106: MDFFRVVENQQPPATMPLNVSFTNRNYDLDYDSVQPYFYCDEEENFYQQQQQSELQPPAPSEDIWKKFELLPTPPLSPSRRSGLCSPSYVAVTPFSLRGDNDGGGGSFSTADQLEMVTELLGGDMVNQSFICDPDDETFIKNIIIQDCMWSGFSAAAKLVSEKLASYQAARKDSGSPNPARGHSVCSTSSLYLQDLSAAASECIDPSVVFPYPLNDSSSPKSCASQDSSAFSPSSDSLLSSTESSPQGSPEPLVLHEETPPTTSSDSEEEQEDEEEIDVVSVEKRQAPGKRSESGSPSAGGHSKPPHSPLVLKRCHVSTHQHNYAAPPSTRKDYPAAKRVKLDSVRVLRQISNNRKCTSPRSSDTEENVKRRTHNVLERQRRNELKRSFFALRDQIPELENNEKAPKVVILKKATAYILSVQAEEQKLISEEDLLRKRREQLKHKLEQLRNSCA
UniProt Q93009: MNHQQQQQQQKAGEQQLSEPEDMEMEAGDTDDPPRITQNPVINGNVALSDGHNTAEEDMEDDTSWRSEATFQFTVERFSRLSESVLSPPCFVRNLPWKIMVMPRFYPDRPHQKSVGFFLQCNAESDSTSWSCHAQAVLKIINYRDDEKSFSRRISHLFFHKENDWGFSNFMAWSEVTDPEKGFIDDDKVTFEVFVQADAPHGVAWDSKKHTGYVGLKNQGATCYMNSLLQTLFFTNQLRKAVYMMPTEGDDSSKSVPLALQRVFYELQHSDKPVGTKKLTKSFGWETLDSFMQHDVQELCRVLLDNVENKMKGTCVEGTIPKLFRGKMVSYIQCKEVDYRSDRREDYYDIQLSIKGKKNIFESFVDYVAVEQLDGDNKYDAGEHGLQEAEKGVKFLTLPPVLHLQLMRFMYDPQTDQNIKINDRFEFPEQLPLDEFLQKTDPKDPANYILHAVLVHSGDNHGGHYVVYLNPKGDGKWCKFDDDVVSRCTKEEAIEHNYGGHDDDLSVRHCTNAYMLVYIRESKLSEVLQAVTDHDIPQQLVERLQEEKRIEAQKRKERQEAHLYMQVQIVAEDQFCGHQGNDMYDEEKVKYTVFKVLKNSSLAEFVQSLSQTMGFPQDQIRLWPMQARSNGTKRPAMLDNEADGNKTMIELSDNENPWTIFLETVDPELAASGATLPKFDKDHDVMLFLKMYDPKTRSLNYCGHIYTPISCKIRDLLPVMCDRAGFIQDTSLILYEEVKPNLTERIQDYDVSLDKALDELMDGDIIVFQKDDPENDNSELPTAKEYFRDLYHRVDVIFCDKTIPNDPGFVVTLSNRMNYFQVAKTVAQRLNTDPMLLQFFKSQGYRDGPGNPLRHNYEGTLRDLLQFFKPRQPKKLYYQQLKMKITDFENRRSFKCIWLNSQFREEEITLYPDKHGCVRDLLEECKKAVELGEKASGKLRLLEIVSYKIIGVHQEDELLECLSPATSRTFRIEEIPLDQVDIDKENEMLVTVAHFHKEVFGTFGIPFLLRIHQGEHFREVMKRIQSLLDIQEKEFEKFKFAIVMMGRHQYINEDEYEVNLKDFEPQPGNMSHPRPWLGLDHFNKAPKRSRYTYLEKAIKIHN
UniProt Q13049: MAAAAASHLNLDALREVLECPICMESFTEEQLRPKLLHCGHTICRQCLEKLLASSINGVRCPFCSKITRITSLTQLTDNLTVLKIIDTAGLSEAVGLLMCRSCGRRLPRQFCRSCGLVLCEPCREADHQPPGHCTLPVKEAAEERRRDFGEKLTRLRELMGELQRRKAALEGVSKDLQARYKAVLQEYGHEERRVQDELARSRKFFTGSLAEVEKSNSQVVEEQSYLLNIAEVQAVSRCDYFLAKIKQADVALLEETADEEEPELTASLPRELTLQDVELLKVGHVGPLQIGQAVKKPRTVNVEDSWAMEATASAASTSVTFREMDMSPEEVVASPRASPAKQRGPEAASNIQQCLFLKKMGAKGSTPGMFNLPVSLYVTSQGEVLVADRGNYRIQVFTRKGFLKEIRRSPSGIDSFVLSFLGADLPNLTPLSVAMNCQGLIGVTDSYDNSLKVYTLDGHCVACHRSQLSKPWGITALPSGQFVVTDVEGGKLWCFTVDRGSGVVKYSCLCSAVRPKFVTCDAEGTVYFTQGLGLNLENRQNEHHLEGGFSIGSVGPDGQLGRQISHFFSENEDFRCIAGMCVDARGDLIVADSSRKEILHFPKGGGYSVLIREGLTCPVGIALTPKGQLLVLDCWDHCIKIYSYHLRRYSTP

Assays:
[1] = target: c-Myc (overexpressed from pcDNA3-c-Myc) (UniProt P01106); experiment: co-IP; HEK293T cells transfected with the indicated constructs, lysed 48 h later in nuclear lysis buffer (50 mM TRIS pH 7.5, 0.5 M NaCl, 1% NP-40, 1% DOC, 0.1% SDS, 2 mM EDTA), SDS reduced to 0.07%; IP with anti-FLAG (FLAG-USP7) or anti-c-Myc antibody 4 h at 4 °C, protein-G agarose overnight at 4 °C; western blot
FLAG-tagged USP7 = FLAG-tagged USP7 (UniProt Q93009); experiment: as above

Row | Substance | binding [1] | binding (FLAG-tagged USP7)
1 | FLAG-tagged USP7 (from UniProt Q93009 1-1102) (enzyme) | binds | 
2 | GFP-tagged TRIM32 (from UniProt Q13049 1-653) (enzyme) | binds | binds
3 | c-Myc (overexpressed from pcDNA3-c-Myc) (from UniProt P01106 1-454) |  | binds
